Results taken from PubChem BioAssay AID1508600 (Functional Genomics Laboratory (NCATS/FGL), 2020).
The whole screen tested about 53,000 sequences, of which about 3,700 (7%) were called active.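 The calls were made as follows: active = gene knockdowns whose robust z-score for IL-1 alpha signal is at least 2 or at most -2, so actives lie on both sides; inactive = the rest.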 The list shows a part of the results.

Experiment: Components of the Cytosolic LPS Sensing Pathway: Gene Identification via Genome-wide siRNA Screen;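 also: robust z of the log signal after scaling to non-targeting control siRNA wells of the plate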
Conditions: RAW264.7 macrophages, IL-1a HTRF, actives lie on both sides, screened at 100 nM (by protocol), cells primed 5 h with Pam3CSK4 first
Outline: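 Supernatant IL-1a by HTRF from RAW264.7 cells primed with Pam3CSK4 (5 hours) and transfected with LipidA (24 hour) after 48h siRNA knockdown at 100 nM; cell viability checked with CellTiter-Glo.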

Sequence | z-score
GCCACUUAGAAUGACCUAATT against Dpcd | inactive: -1.63
GGUGAUAAUUAAUGUCUUGTT against Naip1 | active: 2.08
GCCGCCACAAAGUUUGCAUTT against Spock3 | inactive: 0.0414
GGUGACUUCAGAUGUGGCCTT against Ehmt2 | inactive: -1.29
CCCACUAUGAUCCACCUAGTT against Hnrnph2 | inactive: -0.307
GGUUGAAAAUGUUGAUCGUTT against Rnd3 | inactive: -0.398
GGGCGAAGAUACAAGUGACTT against Tnp2 | inactive: -1.76
GGAAAGGUCAAGCUGGUUCTT against Tm9sf3 | inactive: 0.111
GGCAAUUUAAGAAAGAUGUTT against Cep68 | inactive: -0.702
CCUCAUUGUGGUUACCCUCTT against Olfr93 | inactive: -0.654
GGACAGUACGCAAAGACCUTT against Rxra | inactive: -0.847
GCCUAAGUUCAUUCUGAAATT against Ccdc137 | inactive: 0.31
GGCUUAGAGAAACUCUAGATT against Nacc1 | inactive: 1.3
GGGUUGGAUUCCUACCCAGTT against AA986860 | inactive: 0.775
GGAUGUCACUGAAAUUGCCTT against Gas2l1 | inactive: -1.37
CCCGUUGCAUGUUAUAUGCTT against Gtpbp3 | inactive: 0.0974
GCGAGUCAUACCAAUUAGATT against Trmt2a | inactive: -0.128
GGUUCUGGAGAACAGAGUCTT against 4930483J18Rik | inactive: -0.44
GCUUUAUCUAUUUCACCAATT against Olfr1442 | inactive: 0.235
CGUUUAUGUGUAUUAACCATT against Ppid | inactive: -0.907
GCUUAAAACAGACCAUUUUTT against Ttc32 | inactive: 1.07
GGGAAUUCUAUUCAACACUTT against Rps6ka5 | inactive: -0.478

Sequence | z-score
GGAUUCUUGGUAGCCCAAATT against Magea2 | inactive: 0.297
GGAAGAGAUAUCUGAACUUTT against Angel1 | inactive: 1.03
CGUAUGGAUGGAAUACAAUTT against Rap2b | inactive: 1.66
GCGUGUGAUUAAUAAAGUUTT against Vps54 | inactive: 0.0253
GGGCUGAAAGACUCAAAGCTT against Olfr577 | inactive: -0.974
GCAAAGAAGCUCUUUAGAGTT against Hoxc5 | inactive: 0.455
GCCAUUAUAUAGUCCUACCTT against Klf1 | inactive: 0.719
GGAAUUCCAGUUUCUUCAATT against Tle2 | inactive: 0.356
GCCAUAUGCUAUCAAGAUGTT against Pskh1 | inactive: -0.715
GGAGAGAUUAAUUUCUGUATT against 4430402I18Rik | inactive: 0.485
GGCACUGUAAAUGUACUCATT against Rbak | active: -2.54
GGAAUUAGAGAACUUAGUUTT against Gclm | inactive: 0.562
GGAAAGGUGUAUUCUUAAUTT against Bhlhe22 | inactive: 1.43
GGACAAUCCUGUCUUCCAGTT against Paox | inactive: 0.964
GGUUUCGUACCAUGAAACATT against Stx2 | inactive: -0.147
GGCAGAAAACAAGAUAAAGTT against Eif4h | inactive: -0.325
GGAGACAGAAUUCAAAACUTT against P2ry1 | inactive: 0.0725
GGAAGAUAACCAUUUUGAATT against Setd4 | inactive: -0.777
CCCUACAGGAAGUCACUCUTT against Gsdma | inactive: 0.226
CGUAGAAAGCUCAUUAUUUTT against Clmn | inactive: -0.142
GGAAGGUGAUGAAGGAUCGTT against Fam118a | inactive: 0.0491
GGCUUUGUGGAUUUUGAAGTT against Cabp4 | inactive: -1.2

Given as tab-separated lines: part of the list above.
Sequence	z-score
GGAAUUCCAGUUUCUUCAATT against Tle2	inactive: 0.356
GCCAUAUGCUAUCAAGAUGTT against Pskh1	inactive: -0.715
GGAGAGAUUAAUUUCUGUATT against 4430402I18Rik	inactive: 0.485
GGCACUGUAAAUGUACUCATT against Rbak	active: -2.54
GGAAUUAGAGAACUUAGUUTT against Gclm	inactive: 0.562

Next results follow:

Sequence | z-score
GGAAAAGGUCCUGUGCUGUTT against Abhd2 | inactive: 1.68
CGGAUAUCACUCUGAGAAGTT against Loxl4 | inactive: -0.816
CCCAUUGAACAGGAUGUUATT against Coq9 | inactive: -0.292
CCAGUCACUAUUUGAGUGUTT against Erg | inactive: 1.9
GGAAAGACCAAAUCAGAUGTT against Arid5a | inactive: 0.597
GGCUAAGACUCUCUGAAAUTT against F2rl1 | inactive: 0.926
GCUCUGUUACUAUUUGAAUTT against Cts6 | inactive: 0.137
GCACUGUCAUGAAAUAUUUTT against Adgrv1 | inactive: -0.618
CCUGACCAAUGAAACCUUATT against Il22ra2 | inactive: 0.896
GGAAUAUAGAAGACUAAGUTT against Gm5114 | inactive: 0.237
GCUGACUGAAUCACAAGCCTT against BC024139 | inactive: 0.841
CGACAGUGAAUGCGCUAAGTT against Slc7a9 | inactive: -0.218
GAUUUUCUGUAUCCAUCUATT against Olfr725 | inactive: 0.0676
GGCAGAAGAGCAGUCUGAATT against Umodl1 | inactive: 0.135
GGCGCAGACACUCAGUUUGTT against Cpped1 | inactive: 0.57
GGAAACUGUCAUCGAUAGGTT against Dlgap4 | inactive: 0.832
GGACAACAUAGCAAGAUUUTT against Ptpn7 | inactive: 0.0731
CCUGAUAUACCAGCCACCGTT against Pex2 | inactive: -0.319
CCGCCUCCUGACAAAAGUGTT against Trim17 | inactive: 0.207
GGCAUGGUUUGGAUUUGCGTT against Camk2b | inactive: 0.353
UCUCCUACCUAUGCACAUATT against Panx2 | inactive: -0.925
GGUCUUGGAGUUGCUAAUUTT against Med4 | active: 2.63

Sequence | z-score
CCGACCACUACACAAGCCUTT against Olfr449 | inactive: -0.203
GGACGAUAAGCUUAGCCCUTT against Nfkbib | inactive: 0.179
GCCCAUGAAAGAUGAUAUCTT against Ak2 | inactive: -0.0952
GCAUAUGACCUAAGAGUGATT against Slc6a7 | inactive: 0.55
GCUAUAGGCAAUGUGAUCUTT against Btnl1 | inactive: -1.86
CCUUCUCCUGAAGAAUUGATT against Smagp | inactive: -0.223
GGUCAGCCUAAGAAUGUACTT against Prss28 | inactive: -1.14
CGUAGGCACCUAUGGUAUATT against H2-Aa | inactive: -0.175
CGUUCCAUCUCUAACUGGATT against Rhox3a | inactive: 0.431
GGAAGACUCCUCAUACCUGTT against Ddit4 | inactive: -0.589
GCAUGCAUCGAUUGUGCGCTT against Scml4 | inactive: -0.062
GCUACCUCAACAUGGAUGCTT against Pcca | inactive: 1.16
GGAGAAAACAGGCAAUAGUTT against Prr15 | inactive: -0.0385
GGCAGCUUUACGAUGUACATT against Lcn2 | inactive: 0.658
CCUUAGACAUCGAAGUAAUTT against Hrh4 | inactive: -0.00723
GGAAGCAGAGCCCGAAAAATT against Ccdc85b | inactive: 1.08
GGACACAGAAAAUAUCCCATT against Sct | inactive: -0.552
GGAAACAAGAGUUGGAUAGTT against Pclo | inactive: -0.311
GGAUCCUUCCAAAAGGAAATT against Alg3 | inactive: 1.8
GGGAAAAUGUUGAUGCUGATT against Alppl2 | inactive: -0.393
GGAAACCUCGCAUCAAUUCTT against Rybp | inactive: 1.57
GGUUUGUGAAAGAUAAUGGTT against Gzmf | inactive: -0.242

For convenience, part of the list above.
Sequence | z-score
GGACAACAUAGCAAGAUUUTT against Ptpn7 | inactive: 0.0731
CCUGAUAUACCAGCCACCGTT against Pex2 | inactive: -0.319

Next part:

Sequence | z-score
UCAUCGCAACCAUCCACAGTT against Olfr530 | inactive: 0.464
GCUAGGAGACAUUAGCUACTT against Slc13a4 | inactive: -0.661
GGUUUUACACACUCCAUGATT against Olfr1246 | inactive: -0.424
GCAACUUGUUAGUGGACUCTT against Olfr620 | inactive: -1.08
GCAGUUAUGUUAUAGCUGCTT against Ctu2 | inactive: 0.0152
GGACACAAUUGAAAUAGACTT against Slc5a1 | inactive: -1.73
GGGUUGUCCAAUGUGAAGGTT against Mettl26 | inactive: 0.492
GCGGAAGUCGACCUUUGAUTT against Cd164 | inactive: -0.238
CGAGAACCGACCAUGCAGUTT against Ndufb11 | inactive: 0.369
CCACUUCCGAUGAGCCAGATT against Mrps10 | active: -3.31
GCUUUAAGAAAGAUUGACCTT against Caap1 | inactive: 0.163
GGCAAGAUCUUCAAGUGAATT against Eef1g | inactive: -0.809
GGUGGCAAACUUCAUUUUATT against Srsf2 | inactive: -0.431
GGCUGUGUAUUACUGCGCUTT against Vpreb2 | inactive: -0.236
GCCCUUCAUGCUCAUGAGUTT against Hccs | inactive: -0.827
CGUUAGUCUGUGAAUGCACTT against Emc10 | inactive: -0.442
GCGGUCUGUCCCUACUAAUTT against Dnajc4 | inactive: 1.69
GGAACCAAAGUCAAAGGAGTT against Fip1l1 | inactive: 1.75
GCUGAUUAGCCAUGUAAUUTT against Cebpg | inactive: -0.481
